We go through three substances from publication PMC4512687.

Protein sequences, listed by entry. Tags and fused reporters are not part of them.
UniProt O35625: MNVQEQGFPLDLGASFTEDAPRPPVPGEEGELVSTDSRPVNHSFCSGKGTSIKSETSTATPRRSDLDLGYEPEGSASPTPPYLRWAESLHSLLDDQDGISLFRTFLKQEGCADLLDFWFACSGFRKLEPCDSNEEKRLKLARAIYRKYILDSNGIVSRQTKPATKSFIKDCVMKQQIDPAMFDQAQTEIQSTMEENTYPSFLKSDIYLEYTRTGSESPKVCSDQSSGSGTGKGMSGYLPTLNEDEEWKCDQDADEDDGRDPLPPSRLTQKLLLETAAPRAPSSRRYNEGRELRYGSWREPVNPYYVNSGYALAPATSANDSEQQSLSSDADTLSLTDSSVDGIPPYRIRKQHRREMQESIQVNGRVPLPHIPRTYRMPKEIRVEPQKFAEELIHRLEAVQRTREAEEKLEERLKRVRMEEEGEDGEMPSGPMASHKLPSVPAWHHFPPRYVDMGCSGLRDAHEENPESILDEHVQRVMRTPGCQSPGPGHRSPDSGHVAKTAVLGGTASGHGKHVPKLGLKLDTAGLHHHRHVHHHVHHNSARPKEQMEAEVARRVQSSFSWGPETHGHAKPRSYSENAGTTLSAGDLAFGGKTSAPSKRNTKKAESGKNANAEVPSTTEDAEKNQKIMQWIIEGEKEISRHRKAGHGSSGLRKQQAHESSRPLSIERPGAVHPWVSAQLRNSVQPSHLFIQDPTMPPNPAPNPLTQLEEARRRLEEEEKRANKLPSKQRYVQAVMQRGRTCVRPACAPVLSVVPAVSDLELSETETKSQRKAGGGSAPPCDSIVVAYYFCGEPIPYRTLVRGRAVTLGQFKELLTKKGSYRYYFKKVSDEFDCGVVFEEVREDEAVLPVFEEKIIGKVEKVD
UniProt P11798: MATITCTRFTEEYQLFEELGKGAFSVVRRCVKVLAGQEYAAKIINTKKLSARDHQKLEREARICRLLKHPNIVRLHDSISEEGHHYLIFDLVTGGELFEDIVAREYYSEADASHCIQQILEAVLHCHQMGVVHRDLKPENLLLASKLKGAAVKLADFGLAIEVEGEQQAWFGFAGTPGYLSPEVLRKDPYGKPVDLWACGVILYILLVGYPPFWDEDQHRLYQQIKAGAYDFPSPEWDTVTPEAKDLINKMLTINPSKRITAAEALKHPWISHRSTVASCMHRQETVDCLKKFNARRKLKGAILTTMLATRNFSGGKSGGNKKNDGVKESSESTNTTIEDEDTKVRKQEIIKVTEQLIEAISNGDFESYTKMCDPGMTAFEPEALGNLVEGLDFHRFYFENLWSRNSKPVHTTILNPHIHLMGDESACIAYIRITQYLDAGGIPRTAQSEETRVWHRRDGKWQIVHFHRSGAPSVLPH
UniProt P28652: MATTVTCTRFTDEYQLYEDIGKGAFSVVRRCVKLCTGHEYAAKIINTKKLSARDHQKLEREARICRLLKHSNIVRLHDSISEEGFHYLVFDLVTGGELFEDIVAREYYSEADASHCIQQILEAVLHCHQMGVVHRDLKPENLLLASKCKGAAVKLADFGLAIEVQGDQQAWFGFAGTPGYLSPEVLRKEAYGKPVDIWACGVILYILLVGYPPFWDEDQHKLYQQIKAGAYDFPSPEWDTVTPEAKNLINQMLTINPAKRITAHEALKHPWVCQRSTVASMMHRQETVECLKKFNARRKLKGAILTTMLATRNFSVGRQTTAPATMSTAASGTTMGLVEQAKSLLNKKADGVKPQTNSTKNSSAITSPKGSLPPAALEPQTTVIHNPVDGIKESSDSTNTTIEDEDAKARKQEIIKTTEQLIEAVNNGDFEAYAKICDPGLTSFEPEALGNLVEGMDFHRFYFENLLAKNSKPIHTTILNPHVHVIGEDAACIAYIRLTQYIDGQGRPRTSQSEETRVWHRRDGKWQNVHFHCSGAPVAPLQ

The target of assay [1] is Axin (UniProt O35625). Kind of assay: co-IP; co-immunoprecipitation assay in HEK293T cells.
The target in assay [2] is Axin (mouse (endogenous in mouse brain)) (UniProt O35625). Kind of assay: co-IP; mouse brain P1 (pelleted nuclear fraction) and S2 (cytosol and light membranes) fractions; data not shown.
Assay [3] shares this target. Kind of assay: co-IP; co-immunoprecipitation with Axin from the mouse brain synaptosomal fraction.

Results are given in words; binding and its absence hold for the method and conditions named. In cells and extracts the contact can be indirect. Some results given as binding are weak or reduced against the parent protein; the word gives no strength.

Regarding CaMKIIα (from UniProt P11798 1-478), the binding entry in assay [1] is “binds”. As to CaMKIIβ (from UniProt P28652 1-542), the binding result in assay [1] was “binds”. In the case of “Calcium/calmodulin-dependent protein kinase type II subunit alpha (from UniProt P11798 1-478)”, the binding entry in assay [2] and in assay [3] was “binds” in each case.
